From PubChem BioAssay (NCATS)
Inconclusive results, whose numbers are uncertain, are shown with a selection of clear calls. Where the call is inconclusive, the potency comes from a doubtful curve fit. Calls of active or inactive are those of the source. The call rests on the fitted dose curve. Positions of bridges follow the written chain, without caps; N, C: chain ends. Non-standard residues stand in square brackets, D forms with d. Residues, ends and D or L forms follow the SMILES beside them. *: point of attachment. X1 = CCC(C)C(N)C1=NC(C(=O)*)CS1; dOrn = NCCC[C@@H](N)C(=O)O

Protein sequences, listed by entry. Tags and fused reporters are not part of them. Lines headed by an entry give the natural chain unless they say otherwise; changes in a name come on top.
UniProt P09958, whole entry, looked up: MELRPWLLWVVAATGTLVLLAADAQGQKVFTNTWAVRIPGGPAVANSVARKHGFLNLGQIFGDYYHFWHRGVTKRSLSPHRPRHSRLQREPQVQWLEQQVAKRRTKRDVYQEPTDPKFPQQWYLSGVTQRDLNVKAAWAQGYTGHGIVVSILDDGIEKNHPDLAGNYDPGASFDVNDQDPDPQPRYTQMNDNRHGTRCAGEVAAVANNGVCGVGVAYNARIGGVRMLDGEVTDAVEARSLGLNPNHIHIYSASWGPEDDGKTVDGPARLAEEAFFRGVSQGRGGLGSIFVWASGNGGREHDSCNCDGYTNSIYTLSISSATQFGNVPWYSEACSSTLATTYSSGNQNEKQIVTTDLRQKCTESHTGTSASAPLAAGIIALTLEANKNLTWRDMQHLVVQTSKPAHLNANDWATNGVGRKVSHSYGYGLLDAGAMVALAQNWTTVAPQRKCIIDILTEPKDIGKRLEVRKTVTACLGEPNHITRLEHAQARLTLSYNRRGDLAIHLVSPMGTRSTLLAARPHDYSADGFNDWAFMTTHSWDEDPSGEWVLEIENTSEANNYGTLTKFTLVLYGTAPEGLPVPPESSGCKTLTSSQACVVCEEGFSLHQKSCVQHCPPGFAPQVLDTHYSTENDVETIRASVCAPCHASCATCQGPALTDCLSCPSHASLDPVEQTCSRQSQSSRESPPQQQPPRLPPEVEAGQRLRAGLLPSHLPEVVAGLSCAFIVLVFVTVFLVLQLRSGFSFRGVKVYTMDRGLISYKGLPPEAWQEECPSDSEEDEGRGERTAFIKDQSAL
UniProt Q8JUX6: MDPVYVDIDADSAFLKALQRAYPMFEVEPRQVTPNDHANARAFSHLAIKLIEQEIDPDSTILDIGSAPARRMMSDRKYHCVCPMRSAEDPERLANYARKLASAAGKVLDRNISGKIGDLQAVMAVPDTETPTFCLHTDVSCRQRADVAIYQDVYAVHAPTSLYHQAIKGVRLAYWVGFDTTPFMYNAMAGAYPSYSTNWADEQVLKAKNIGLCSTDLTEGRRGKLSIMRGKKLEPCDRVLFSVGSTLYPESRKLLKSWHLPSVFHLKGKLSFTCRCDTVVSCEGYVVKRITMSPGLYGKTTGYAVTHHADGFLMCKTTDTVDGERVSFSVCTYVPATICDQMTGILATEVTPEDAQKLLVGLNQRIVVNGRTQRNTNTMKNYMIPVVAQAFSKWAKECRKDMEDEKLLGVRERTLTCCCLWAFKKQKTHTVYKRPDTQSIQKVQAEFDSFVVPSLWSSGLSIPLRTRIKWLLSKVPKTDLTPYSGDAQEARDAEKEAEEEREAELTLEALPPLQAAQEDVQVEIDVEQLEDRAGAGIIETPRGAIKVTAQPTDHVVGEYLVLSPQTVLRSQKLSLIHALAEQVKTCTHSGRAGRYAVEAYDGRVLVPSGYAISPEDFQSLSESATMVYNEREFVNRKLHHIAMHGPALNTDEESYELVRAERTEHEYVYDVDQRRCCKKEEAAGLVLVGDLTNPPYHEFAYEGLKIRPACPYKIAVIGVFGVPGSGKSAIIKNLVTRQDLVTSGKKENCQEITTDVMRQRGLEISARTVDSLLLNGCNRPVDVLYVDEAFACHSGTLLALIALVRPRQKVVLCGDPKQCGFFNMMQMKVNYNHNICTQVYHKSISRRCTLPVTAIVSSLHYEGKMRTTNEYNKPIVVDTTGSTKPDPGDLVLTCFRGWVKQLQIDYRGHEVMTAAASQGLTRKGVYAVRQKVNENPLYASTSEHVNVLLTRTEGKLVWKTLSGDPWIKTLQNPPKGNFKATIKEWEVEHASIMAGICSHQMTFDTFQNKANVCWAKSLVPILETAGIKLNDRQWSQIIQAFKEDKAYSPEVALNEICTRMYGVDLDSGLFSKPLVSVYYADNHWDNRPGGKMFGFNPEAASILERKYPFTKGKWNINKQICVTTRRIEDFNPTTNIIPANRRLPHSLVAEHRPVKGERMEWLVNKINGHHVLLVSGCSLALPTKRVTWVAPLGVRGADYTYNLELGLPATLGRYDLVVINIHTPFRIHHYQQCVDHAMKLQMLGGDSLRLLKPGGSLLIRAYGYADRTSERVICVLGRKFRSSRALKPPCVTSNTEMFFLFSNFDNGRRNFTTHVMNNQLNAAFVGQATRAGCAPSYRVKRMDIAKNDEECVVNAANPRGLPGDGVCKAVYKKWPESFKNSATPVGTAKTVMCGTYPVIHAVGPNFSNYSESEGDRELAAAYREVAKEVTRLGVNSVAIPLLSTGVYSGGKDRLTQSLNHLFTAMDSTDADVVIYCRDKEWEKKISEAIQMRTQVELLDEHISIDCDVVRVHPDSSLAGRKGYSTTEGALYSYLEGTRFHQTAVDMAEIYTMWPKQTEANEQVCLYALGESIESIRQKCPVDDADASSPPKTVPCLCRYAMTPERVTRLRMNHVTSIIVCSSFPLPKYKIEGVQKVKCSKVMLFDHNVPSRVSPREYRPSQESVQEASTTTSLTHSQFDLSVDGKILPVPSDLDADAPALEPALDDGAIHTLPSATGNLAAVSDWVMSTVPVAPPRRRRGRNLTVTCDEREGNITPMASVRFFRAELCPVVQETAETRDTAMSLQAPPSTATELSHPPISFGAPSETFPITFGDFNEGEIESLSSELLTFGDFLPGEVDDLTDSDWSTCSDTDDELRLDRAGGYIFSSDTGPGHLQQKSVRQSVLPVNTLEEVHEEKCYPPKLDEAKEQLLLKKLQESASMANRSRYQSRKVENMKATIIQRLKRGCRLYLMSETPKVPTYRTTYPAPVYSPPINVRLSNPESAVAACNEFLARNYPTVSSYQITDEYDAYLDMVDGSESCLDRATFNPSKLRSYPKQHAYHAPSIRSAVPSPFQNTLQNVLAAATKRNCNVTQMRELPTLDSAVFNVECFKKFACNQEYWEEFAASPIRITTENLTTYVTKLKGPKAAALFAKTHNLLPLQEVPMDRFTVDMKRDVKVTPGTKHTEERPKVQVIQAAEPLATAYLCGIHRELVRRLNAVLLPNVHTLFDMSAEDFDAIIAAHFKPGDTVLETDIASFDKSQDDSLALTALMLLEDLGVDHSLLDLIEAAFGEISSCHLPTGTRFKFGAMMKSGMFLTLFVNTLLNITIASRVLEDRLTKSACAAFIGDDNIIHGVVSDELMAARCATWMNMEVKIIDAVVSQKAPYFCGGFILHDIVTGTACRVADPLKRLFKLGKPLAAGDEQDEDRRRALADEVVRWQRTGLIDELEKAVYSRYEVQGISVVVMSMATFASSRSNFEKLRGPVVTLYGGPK

Biological target: Furin (Homo sapiens) (UniProt P09958)
Experiment: Selectivity profile for inhibitors of NSP2Pro chikungunya virus (CHIKV): Human furin counterscreen (AID 1964102)
Settings: Recombinant human furin enzymatic counterscreen, fluorogenic substrate; series mostly up to 50.6 µM
Potency means the concentration at half of the fitted maximal effect.

Structure (SMILES) | Potency
OCc1ccc(-c2ccc(-c3ccc(CO)s3)o2)s1 | inconclusive: 10 µM [inhibitor, partial curve, poor fit]
COC(=O)c1cc(CN2CCN(C(=N)N)CC2)cc(C(=O)N2CCN(C(=O)c3ccc(C(=N)N)cc3)CC2)c1 | active: 9.19 µM
O=C(Nc1ccc(N2CCN(c3ccc(F)cc3)CC2)c(C(=O)O)c1)c1ccccc1F | inconclusive: 20.6 µM [inhibitor, single point]
O=C(Nc1ccc(N2CCN(CCOc3ccc(Cl)cc3)CC2)c(C(=O)O)c1)c1ccc(F)cc1 | inconclusive: 20.6 µM [inhibitor, partial curve]
C=CCNc1nnc(-c2cccc3ccccc23)o1 | inconclusive: 20.6 µM [inhibitor, partial curve]
Cc1nc(-c2ccco2)cc([C@H]2CN3CC[C@H]2C[C@@H]3CNC(=O)NC2CCCCC2)n1 | inconclusive: 33.5 µM [inhibitor, partial curve]
COCCNC(=O)Nc1ccc2nc(-c3cccs3)c(-c3cccs3)nc2c1 | inactive
CCOc1ccc(/C=C/C(=O)Nc2sc3c(c2C(=O)OC)C(C(=O)OC)CC3)cc1 (configuration not stated) | inactive
CC1=C(C(=O)O)N2C(=O)[C@@H](NC(=O)[C@H](N)c3ccccc3)[C@H]2SC1 | inactive
C/C(=N\N=C(N)N)c1ccc(NC(=O)Nc2ccc(/C(C)=N/N=C(N)N)cc2)cc1 | active: 16.3 µM
Cc1cccc(N2CCN(c3ccc(NC(=O)c4ccccc4)cc3C(=O)O)CC2C)c1 (configuration not stated) | inconclusive: 23.1 µM [inhibitor, partial curve, poor fit]
Cc1ccc(OCCn2c(CCNC(=O)c3ccccc3N)nc3ccccc32)cc1 | active: 20.6 µM
O=C1CO[C@H]2CN(c3ncccn3)C[C@H]2N1CC1CCCCC1 | inconclusive: 26.6 µM [inhibitor, partial curve]
CC(=O)NC1CC2(CCN(C(=O)CCCNC(=O)OC(C)(C)C)CC2)Oc2ccccc21 (configuration not stated) | inactive
CCOC(=O)c1ccc(OCCN2C[C@H](O)[C@@H](O)[C@H](O)[C@H]2CO)cc1 | active: 14.2 µM
C=CCCCCCCCCC(=O)O | inconclusive: 14.2 µM [inhibitor, partial curve, poor fit]
CCC(C)C(N)C1=NC(C(=O)N[C@@H](CC(C)C)C(=O)N[C@H](CCC(=O)O)C(=O)N[C@H](C(=O)N[C@H]2CCCCNC(=O)[C@H](CC(N)=O)NC(=O)[C@@H](CC(=O)O)NC(=O)[C@H](Cc3cnc[nH]3)NC(=O)[C@@H](Cc3ccccc3)NC(=O)[C@H]([C@@H](C)CC)NC(=O)[C@@H](CCCN)NC2=O)[C@@H](C)CC)CS1 (some centres not stated) (X1-L[dE]IK[dOrn]I[dF]H[dD]N; lactam 4-C) | active: 7.98 µM
Cc1nn(-c2ccc(C(F)(F)F)cc2)c(C)c1[C@@H]1C=C[C@@H](NC(=O)NC(C)C)C1 | active: 14.9 µM
CCN(CC)Cc1ccc(C(=O)N(CCc2ccccc2OC)[C@@H]2CCNC2)cc1 | inactive
N#CN1CCC[C@@H](n2nc(-c3ccc(Oc4ccc(F)cc4F)cc3)c(C(N)=O)c2N)C1 | inactive
COCCN1C(=O)CO[C@H]2CN(c3ncccn3)C[C@H]21 | inconclusive: 42.1 µM [inhibitor, partial curve]

Biological target: Polyprotein P1234 (Chikungunya virus (strain S27-African prototype)) (UniProt Q8JUX6)
Experiment: Selectivity profile for inhibitors of NSP2Pro chikungunya virus (CHIKV): Endogenous NS2/3 peptide Counterscreen (AID 1964103); further: nearly all actives have a fitted effect of over 55% in size
Settings: Purified CHIKV nsP2 protease, endogenous NS2/3 peptide cleavage; series mostly up to 51 µM

Structure (SMILES) | Potency
CCCCS(=O)c1sc2nc(-c3cccs3)cc(-c3ccccc3)c2c1N (configuration not stated) | inactive
COC([CH2][Hg])CNC(=O)c1ccccc1OCC(=O)O (configuration not stated) | inconclusive: 25.9 µM [inhibitor, single point]
OCc1ccc(-c2ccc(-c3ccc(CO)s3)o2)s1 | inconclusive: 14.2 µM [inhibitor, partial curve]
NS(=O)(=O)C#Cc1ccccc1 | inconclusive: 14.6 µM [inhibitor, partial curve]
CC1=C2C[C@@]3(C)C(CCC[C@@H]3C)C(O)C2OC1=O (some centres not stated) | inconclusive: 16.3 µM [inhibitor, partial curve]
O=C(O)/C=C/c1ccc(O)c(O)c1 | inactive
COC(=O)c1cc(CN2CCN(C(=N)N)CC2)cc(C(=O)N2CCN(C(=O)c3ccc(C(=N)N)cc3)CC2)c1 | inconclusive: 18.3 µM [inhibitor, partial curve, poor fit]
CCN1Cc2ccccc2NC(=O)C12CCNC2 (configuration not stated) | active: 14.4 µM
C=CC(=O)c1ccc2ccccc2c1 | inconclusive: 20.6 µM [inhibitor, partial curve]
CCOc1ccc(NC(=O)c2c(NC(=O)Cc3ccccc3)sc3c2CCCCC3)cc1 | active: 16.3 µM
CC(C)(O)C1OC1C1=CC(=O)C2(C)OC2C1O (configuration not stated) | inconclusive: 20.6 µM [inhibitor, single point]
CCOc1ccc(/C=C/C(=O)Nc2sc3c(c2C(=O)OC)C(C(=O)OC)CC3)cc1 (configuration not stated) | active: 4.72 µM
CC1=C(C(=O)O)N2C(=O)[C@@H](NC(=O)[C@H](N)c3ccccc3)[C@H]2SC1 | inactive
COc1ccc(OC)c(N2C(=O)C(Cl)=C(N3CCCCC3)C2=O)c1 | inconclusive: 20.6 µM [inhibitor, partial curve]
CN(C)CCc1c[nH]c2ccc(C[C@H]3COC(=O)N3)cc12 | inactive
Oc1cccc(-c2c3nc(c(-c4cccc(O)c4)c4ccc([nH]4)c(-c4cccc(O)c4)c4nc(c(-c5cccc(O)c5)c5ccc2[nH]5)CC4)C=C3)c1 | active: 18.3 µM
COc1cc(CCN)ccc1O | inactive
CC(=O)NC1CC2(CCN(C(=O)CCCNC(=O)OC(C)(C)C)CC2)Oc2ccccc21 (configuration not stated) | inconclusive: 18.3 µM [inhibitor, partial curve]
CN(C)C(=S)SC(=S)N(C)C | inactive
CCOC(=O)c1ccc(OCCN2C[C@H](O)[C@@H](O)[C@H](O)[C@H]2CO)cc1 | inactive
CC(Cc1ccc(O)c(O)c1)C(C)Cc1ccc(O)c(O)c1 (configuration not stated) | active: 20.6 µM
Nc1nc(O)c(C2=C3C(=Nc4ccccc43)C(=O)NCC2)[nH]1 | inactive
O=C(c1cc(-c2ccco2)[nH]n1)N1CCSC(c2cc(F)ccc2F)CC1 (configuration not stated) | inconclusive: 16.3 µM [inhibitor, partial curve]
C=CCCCCCCCCC(=O)O | inconclusive: 6.34 µM [inhibitor, partial curve]
CCC(C)C(N)C1=NC(C(=O)N[C@@H](CC(C)C)C(=O)N[C@H](CCC(=O)O)C(=O)N[C@H](C(=O)N[C@H]2CCCCNC(=O)[C@H](CC(N)=O)NC(=O)[C@@H](CC(=O)O)NC(=O)[C@H](Cc3cnc[nH]3)NC(=O)[C@@H](Cc3ccccc3)NC(=O)[C@H]([C@@H](C)CC)NC(=O)[C@@H](CCCN)NC2=O)[C@@H](C)CC)CS1 (some centres not stated) (X1-L[dE]IK[dOrn]I[dF]H[dD]N; lactam 4-C) | active: 1.13 µM
N#CN1CCC[C@@H](n2nc(-c3ccc(Oc4ccc(F)cc4F)cc3)c(C(N)=O)c2N)C1 | inconclusive: 16.3 µM [inhibitor, partial curve]
